Test results from US20020193425A1, “Cancer chemopreventative compounds and compositions and methods of treating cancers” (priority 2001, published 2002).
Some results were stated once for a whole list of compounds, not compound by compound. At least one compound was matched to its structure with a doubt left.

Test system: HL-60 (human promyelocytic) cells
Assay: HL-60 cell proliferation assay of quassinoids, [3H]thymidine incorporation
Assay type: cell-based
Settings: Table 6 footnote, marker not specified, read-out: IC50, tested and found to be inactive
Procedure: Induction of differentiation was determined by the ability of treated cells to produce superoxide anions (nitroblue tetrazolium (NBT)-reduction), a functional marker of mature macrophages or granulocytes. Proliferation capacity is equivalent to cell growth and was measured by incorporation of [3H]thymidine into DNA over a period of 18 h, and cytotoxic activity was evaluated by the loss of membrane integrity as shown by trypan blue exclusion. […] Although members of the brusatol and glaucarubolone series were active, when comparing members of both series that varied only in the positioning of the epoxymethano bridge, great differences were noted, as shown with yadianzolide C (5) and glaucarubolone (24), and analogues 4 (brusatol series) and 32 (glaucarubolone series).
HL-60 (human promyelocytic) cells were tested using a 4-day incubation protocol. […] After 4 days of incubation, the cells were analyzed to determine the percentage of cells undergoing maturation as determined by NBT reduction. Concomitantly, the effect on viability and proliferation of HL-60 cells was determined. […] EC50 and IC50 values were calculated using 5-7 test concentrations (in duplicate), and consistent results were obtained, indicating the data reported for the related quassinoids are reliable. […]

Question: With `COC(=O)[C@@]12OC[C@@]34[C@@H](CC5=C(C)C(=O)C(O)=C[C@]5(C)[C@H]3[C@@H](O)[C@@H]1O)OC(=O)[C@H](OC(=O)C=C(C)C)[C@@H]24` [compound 6, dehydrobrusatol] as the molecule, how does the IC50 read?
Answer: Its IC50 is > 5 µM.

Question: How did the IC50 turn out when `COC(=O)[C@@]12OC[C@]34[C@H]([C@@H](O)[C@@H]1O)[C@@]1(C)C=C(O[C@@H]5O[C@H](CO)[C@@H](O)[C@H](O)[C@H]5O)C(=O)[C@@H](C)[C@@H]1C[C@H]3OC(=O)[C@H](OC(=O)C=C(C)C)[C@@H]24` [compound 7, bruceoside A] was run?
Answer: Its IC50 is > 5 µM.
